Assay results: publication PMC11381028
These are yes or no findings as the source states them, for the method shown. Binding seen in cells or lysates may run through a third protein. Some binding calls cover weakened binding; strength is not graded here.

Sequences of proteins named here, by UniProt entry; tags and fusion partners are left off.
UniProt B0LPN4: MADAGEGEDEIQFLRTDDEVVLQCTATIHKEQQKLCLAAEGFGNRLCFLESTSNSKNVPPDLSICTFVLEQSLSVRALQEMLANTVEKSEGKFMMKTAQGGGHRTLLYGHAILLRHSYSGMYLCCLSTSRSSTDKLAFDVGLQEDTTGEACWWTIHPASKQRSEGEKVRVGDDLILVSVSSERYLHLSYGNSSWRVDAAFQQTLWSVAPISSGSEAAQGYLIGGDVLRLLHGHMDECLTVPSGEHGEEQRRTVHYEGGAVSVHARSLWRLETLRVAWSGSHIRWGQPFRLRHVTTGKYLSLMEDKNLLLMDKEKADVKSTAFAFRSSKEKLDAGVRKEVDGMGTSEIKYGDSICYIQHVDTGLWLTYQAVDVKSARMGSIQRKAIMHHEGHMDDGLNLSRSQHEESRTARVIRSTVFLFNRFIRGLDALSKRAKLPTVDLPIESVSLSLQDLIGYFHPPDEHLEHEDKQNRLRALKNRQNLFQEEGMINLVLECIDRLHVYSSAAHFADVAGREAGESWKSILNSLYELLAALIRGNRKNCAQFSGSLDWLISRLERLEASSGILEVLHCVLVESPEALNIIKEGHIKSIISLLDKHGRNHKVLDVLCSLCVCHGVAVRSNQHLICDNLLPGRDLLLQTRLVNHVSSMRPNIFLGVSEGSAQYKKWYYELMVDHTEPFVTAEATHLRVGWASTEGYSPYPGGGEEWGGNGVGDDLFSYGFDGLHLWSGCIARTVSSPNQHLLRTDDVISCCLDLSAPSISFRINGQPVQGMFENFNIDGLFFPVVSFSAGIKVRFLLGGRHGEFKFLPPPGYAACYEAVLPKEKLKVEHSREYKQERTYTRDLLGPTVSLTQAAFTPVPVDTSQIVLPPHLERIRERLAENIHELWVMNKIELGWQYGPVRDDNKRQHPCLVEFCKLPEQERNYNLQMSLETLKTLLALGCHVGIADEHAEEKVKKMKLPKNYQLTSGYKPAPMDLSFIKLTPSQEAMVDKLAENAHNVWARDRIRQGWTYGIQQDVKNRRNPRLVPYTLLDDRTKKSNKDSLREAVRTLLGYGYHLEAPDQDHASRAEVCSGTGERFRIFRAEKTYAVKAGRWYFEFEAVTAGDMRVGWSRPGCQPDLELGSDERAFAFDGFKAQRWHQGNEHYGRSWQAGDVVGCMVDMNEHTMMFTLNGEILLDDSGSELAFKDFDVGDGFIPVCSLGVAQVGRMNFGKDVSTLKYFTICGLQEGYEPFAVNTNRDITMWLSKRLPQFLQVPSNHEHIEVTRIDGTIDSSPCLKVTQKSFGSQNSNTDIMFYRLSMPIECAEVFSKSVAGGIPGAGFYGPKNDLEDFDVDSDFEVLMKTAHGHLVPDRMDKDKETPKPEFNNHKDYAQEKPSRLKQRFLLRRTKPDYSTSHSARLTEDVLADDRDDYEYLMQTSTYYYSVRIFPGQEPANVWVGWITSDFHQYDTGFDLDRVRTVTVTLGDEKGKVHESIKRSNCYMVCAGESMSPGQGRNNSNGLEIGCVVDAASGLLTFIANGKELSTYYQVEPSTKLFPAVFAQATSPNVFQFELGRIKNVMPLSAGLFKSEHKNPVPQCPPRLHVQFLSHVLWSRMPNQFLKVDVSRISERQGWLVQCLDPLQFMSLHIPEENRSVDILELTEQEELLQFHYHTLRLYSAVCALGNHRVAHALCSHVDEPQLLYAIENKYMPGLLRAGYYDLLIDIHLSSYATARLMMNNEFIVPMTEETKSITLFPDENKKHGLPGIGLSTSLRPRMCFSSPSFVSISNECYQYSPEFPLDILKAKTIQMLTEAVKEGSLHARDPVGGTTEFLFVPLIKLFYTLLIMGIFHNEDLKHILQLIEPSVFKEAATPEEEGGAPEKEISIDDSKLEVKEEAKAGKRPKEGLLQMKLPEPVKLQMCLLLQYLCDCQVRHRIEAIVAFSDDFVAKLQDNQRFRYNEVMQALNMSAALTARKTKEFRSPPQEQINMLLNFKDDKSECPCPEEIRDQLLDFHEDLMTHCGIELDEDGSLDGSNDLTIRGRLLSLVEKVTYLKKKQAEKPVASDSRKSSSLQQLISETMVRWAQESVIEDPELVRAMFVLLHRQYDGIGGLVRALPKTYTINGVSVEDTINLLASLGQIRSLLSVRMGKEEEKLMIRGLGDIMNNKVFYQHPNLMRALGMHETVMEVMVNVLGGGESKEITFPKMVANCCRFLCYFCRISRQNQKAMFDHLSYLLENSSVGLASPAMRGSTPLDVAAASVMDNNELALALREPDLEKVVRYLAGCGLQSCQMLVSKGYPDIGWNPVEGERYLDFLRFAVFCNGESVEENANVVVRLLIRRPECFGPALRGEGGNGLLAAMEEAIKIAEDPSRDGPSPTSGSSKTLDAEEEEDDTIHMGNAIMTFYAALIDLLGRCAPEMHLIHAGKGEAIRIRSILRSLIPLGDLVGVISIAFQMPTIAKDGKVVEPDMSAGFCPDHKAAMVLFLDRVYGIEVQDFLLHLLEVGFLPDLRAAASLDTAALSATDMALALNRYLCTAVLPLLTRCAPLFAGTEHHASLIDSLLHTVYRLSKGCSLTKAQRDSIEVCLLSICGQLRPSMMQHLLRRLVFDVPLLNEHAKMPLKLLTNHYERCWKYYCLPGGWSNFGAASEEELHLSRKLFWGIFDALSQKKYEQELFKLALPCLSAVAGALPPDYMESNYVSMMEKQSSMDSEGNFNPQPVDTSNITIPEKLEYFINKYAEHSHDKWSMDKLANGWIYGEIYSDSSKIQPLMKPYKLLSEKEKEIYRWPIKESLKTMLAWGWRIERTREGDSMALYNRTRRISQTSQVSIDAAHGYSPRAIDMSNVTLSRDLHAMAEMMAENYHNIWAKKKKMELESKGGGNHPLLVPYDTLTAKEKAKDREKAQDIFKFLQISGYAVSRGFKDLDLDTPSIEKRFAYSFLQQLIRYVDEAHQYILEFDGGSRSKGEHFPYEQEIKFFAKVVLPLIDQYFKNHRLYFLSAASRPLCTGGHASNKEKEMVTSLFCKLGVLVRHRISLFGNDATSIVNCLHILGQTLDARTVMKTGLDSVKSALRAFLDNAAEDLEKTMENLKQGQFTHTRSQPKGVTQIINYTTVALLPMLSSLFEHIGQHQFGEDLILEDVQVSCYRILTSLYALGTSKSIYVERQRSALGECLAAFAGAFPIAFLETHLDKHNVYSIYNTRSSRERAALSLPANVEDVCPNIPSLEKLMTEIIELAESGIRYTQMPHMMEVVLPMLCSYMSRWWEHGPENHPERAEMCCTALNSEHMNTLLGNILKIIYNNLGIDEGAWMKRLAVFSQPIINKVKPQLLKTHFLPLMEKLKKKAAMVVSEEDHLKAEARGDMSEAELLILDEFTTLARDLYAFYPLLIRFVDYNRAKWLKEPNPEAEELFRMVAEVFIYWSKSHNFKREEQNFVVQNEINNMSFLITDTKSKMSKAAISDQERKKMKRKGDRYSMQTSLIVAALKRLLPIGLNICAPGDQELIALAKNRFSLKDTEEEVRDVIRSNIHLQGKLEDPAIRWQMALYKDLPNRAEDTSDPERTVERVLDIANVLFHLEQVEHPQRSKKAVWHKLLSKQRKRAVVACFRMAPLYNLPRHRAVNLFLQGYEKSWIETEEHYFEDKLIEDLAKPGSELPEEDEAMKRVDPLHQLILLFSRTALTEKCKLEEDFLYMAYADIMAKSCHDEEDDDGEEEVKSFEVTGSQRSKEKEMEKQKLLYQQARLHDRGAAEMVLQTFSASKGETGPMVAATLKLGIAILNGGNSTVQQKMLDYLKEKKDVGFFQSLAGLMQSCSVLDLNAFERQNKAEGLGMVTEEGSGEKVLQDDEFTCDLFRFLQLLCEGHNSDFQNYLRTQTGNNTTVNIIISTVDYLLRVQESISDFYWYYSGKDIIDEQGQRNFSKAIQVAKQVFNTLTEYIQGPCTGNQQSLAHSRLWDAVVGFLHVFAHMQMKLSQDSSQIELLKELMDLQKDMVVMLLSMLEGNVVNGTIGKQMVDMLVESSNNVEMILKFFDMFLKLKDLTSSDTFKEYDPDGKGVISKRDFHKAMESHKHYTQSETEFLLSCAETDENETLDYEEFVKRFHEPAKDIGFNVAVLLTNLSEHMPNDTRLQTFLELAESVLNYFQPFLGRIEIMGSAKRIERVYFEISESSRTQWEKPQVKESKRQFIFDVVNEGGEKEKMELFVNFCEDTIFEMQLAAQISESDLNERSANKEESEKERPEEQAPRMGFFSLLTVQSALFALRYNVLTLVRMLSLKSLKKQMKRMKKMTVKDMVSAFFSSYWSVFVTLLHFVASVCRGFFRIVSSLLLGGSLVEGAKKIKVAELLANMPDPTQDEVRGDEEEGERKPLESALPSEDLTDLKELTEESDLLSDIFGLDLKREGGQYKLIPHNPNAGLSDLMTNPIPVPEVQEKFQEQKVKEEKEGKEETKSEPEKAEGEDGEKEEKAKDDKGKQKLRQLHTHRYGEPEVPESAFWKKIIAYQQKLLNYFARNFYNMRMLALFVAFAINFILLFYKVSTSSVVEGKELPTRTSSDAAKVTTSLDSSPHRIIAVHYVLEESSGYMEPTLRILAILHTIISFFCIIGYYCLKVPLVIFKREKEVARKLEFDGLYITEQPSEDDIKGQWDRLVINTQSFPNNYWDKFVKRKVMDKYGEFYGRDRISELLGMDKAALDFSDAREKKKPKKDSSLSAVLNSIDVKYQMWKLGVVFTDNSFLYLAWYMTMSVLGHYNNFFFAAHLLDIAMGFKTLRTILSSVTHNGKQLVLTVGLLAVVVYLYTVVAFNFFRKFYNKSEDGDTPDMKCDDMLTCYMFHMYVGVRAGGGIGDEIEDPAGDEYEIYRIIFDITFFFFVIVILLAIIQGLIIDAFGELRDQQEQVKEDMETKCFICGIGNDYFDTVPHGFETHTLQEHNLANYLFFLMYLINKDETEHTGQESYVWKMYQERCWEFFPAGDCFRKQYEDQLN
UniProt P23297: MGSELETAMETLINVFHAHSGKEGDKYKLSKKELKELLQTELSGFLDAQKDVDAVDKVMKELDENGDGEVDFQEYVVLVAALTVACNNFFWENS

Molecular target: ryanodine receptor 2 (rat (endogenous in neonatal rat cardiomyocytes)) (UniProt B0LPN4)
Test: co-IP; RyR2 immunoprecipitated from lysates of adenovirally transduced neonatal rat cardiomyocytes; lysis buffer 1% Nonidet-P40, 10% glycerol, 135 mM NaCl, 1 mM CaCl2, 20 mM Tris-HCl pH 7.4 (high Ca2+), 4°C; S100A1 detected by immunoblot

With “wild-type S100A1 (human), overexpressed by adenovirus (from UniProt P23297 1-94)” the binding was “binds”.
